{"sequences": {"note": "Amino acid sequences for entries named in this document (tags omitted).", "UniProt P35462, whole entry, looked up": "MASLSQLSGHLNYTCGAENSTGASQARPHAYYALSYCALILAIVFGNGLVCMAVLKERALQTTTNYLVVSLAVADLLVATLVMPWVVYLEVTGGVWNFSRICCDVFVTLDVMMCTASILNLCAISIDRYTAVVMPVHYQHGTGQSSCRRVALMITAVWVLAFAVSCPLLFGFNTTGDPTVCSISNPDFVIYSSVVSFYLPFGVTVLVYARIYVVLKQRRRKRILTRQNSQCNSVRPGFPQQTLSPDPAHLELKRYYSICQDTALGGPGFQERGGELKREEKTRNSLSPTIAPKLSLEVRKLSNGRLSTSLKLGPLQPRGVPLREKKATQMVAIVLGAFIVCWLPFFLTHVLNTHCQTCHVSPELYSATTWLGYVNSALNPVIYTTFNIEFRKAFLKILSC"}, "source": "PubChem BioAssay AID652054", "about": "(National Center for Advancing Translational Sciences (NCATS), 2013)", "note": "The whole screen tested about 360,000 compounds, of which about 9,100 (2.5%) were called active. Inconclusive means that the source gave no clear call. Such entries were picked first, then a sample of the others. Rule as the data show it: active = max response below about -50%; inconclusive = no clear call, values can overlap the other calls; inactive = above that. % is scaled to controls: 0 for no effect and ±100 for the full control effect."}
{"molecular_target": "D(3) dopamine receptor (Homo sapiens) (UniProt P35462)", "test": "qHTS of D3 Dopamine Receptor Antagonist: qHTS", "conditions": "D3R cells, DiscoveRx beta-arrestin luminescence, antagonist mode; active compounds read low", "method_in_brief": "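Cells plated overnight at 1500 cells/well, then exposed to library compounds with dopamine controls for 90 minutes at 37 degrees C. DiscoveRx reagent added for 30–60 minutes at room temperature; luminescence read, quantitative HTS format.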"}
{"smiles": "O=C(CCn1nc(-c2ccc(Cl)cc2)ccc1=O)NCc1ccccn1", "max response, negative = inhibition": "inconclusive: -31.7%"}
{"smiles": "CC(=O)N1CCN(Cc2cc(=O)oc3cc(C)c(C)cc23)CC1", "max response, negative = inhibition": "active: -80%"}
{"smiles": "CC(=O)Oc1ccc2c(=O)c(Oc3ccccc3[N+](=O)[O-])coc2c1", "max response, negative = inhibition": "inconclusive: -33.8%"}
{"smiles": "COc1ccc(C(=O)N2CCCc3ccccc32)cc1Br", "max response, negative = inhibition": "inactive: 10.6%"}
{"smiles": "Cn1c(C(=O)N2CCCC(C(=O)NCc3cccs3)C2)cc2sccc21", "note": "(stereo not given)", "max response, negative = inhibition": "inconclusive: -35.6%"}
{"smiles": "Cc1ccc(C(=O)O/N=C(/c2nonc2N)N(C)C)cc1", "max response, negative = inhibition": "inconclusive: -31.6%"}
{"smiles": "CCOC(=O)c1ccc(NC(=O)N2CCN(CCc3ccccc3)CC2)cc1", "max response, negative = inhibition": "inconclusive: -40.9%"}
{"smiles": "CN1CCN(CCCNC(=O)c2ccc(NC(=O)C3=CSCCO3)cc2)CC1", "max response, negative = inhibition": "inactive: -0.103%"}
{"smiles": "COc1cc(/C=C/c2ccc3cccc(O)c3n2)cc(Br)c1OC", "max response, negative = inhibition": "active: -55.1%"}
{"smiles": "C=CCOc1c(Cl)cc(C(=S)N2CCCC2)cc1OCC", "max response, negative = inhibition": "inconclusive: -37.1%"}
{"smiles": "Cc1cc(-c2nn3c(-c4ccccc4)nnc3s2)c2ccccc2n1", "max response, negative = inhibition": "inactive: 10.3%"}
{"smiles": "C[C@@]12C(=O)N(c3cccc(F)c3)C(=O)N1[C@H](c1ccc(F)cc1)[C@@H]1C(=O)N(C3CCCCC3)C(=O)[C@@H]12", "max response, negative = inhibition": "inconclusive: -43.3%"}
{"smiles": "O=C(NCCCn1ccnc1)c1ccc(-c2cccc(Cl)c2Cl)o1", "max response, negative = inhibition": "inconclusive: -42%"}
{"smiles": "O=C(CS(=O)(=O)Cc1ccccc1)Nc1ccc(Br)cc1F", "max response, negative = inhibition": "inconclusive: -35.4%"}
{"smiles": "CCOC(=O)C1CCN(Cc2ccc(F)cc2)CC1", "max response, negative = inhibition": "inconclusive: -39.4%"}
{"smiles": "O=C(CN1CCN(CCO)CC1)Nc1ccccc1", "max response, negative = inhibition": "inconclusive: -35.1%"}
{"smiles": "N#Cc1nc(-c2cccc3ccccc23)oc1NCC1CCCO1", "note": "(stereo not given)", "max response, negative = inhibition": "inconclusive: -39.6%"}
{"smiles": "COc1cc(-c2n[nH]c(=S)n2-c2cc(C(F)(F)F)ccc2Cl)cc(OC)c1OC", "max response, negative = inhibition": "inconclusive: -34.7%"}
{"smiles": "COC(=O)[C@@H]1C[C@]2(OC(=O)c3ccccc3)C=CC(=O)C[C@@H]2N1C(=O)OCc1ccccc1", "max response, negative = inhibition": "inconclusive: -43.4%"}
{"smiles": "C=C1C(=O)O[C@@H]2[C@H]3O[C@]3(C)CC/C=C(\\C)CC[C@@H]12", "max response, negative = inhibition": "inconclusive: -35.9%"}
{"smiles": "CN(NC1OC(=O)c2ccccc21)c1ccc(Cl)cc1[N+](=O)[O-]", "note": "(stereo not given)", "max response, negative = inhibition": "inconclusive: -31.1%"}
{"smiles": "CC1=CSC2=NC(=O)/C(=C\\c3cccn3-c3ccc([N+](=O)[O-])cc3)C(=N)N12", "max response, negative = inhibition": "inconclusive: -45.2%"}
{"smiles": "CCc1cccc2c(C(=O)CN3C(=O)NC4(CCCCC4)C3=O)c[nH]c12", "max response, negative = inhibition": "inconclusive: -37.9%"}
{"smiles": "Nc1c(CO)nnn1-c1ccccc1", "max response, negative = inhibition": "active: -53.8%"}
{"smiles": "CCc1ccc(C(=O)Nc2cc(C)on2)o1", "max response, negative = inhibition": "inactive: 10.6%"}
{"smiles": "CCOC(=O)CSc1nc2c(c(=O)[nH]c(=O)n2C)n1CCCc1ccccc1", "max response, negative = inhibition": "inconclusive: -35%"}
{"smiles": "Cc1no[n+]([O-])c1COc1ccc(/C=C2\\NC(=S)NC2=O)cc1", "max response, negative = inhibition": "inactive: -20%"}
{"smiles": "CCOC(=O)c1c(C)n(C)c2ccc(OCC(O)CN(CC)CC)cc12", "note": "(stereo not given)", "max response, negative = inhibition": "active: -53.7%"}
{"smiles": "COc1ccc(NS(=O)(=O)c2ccc3c(c2)n(C)c(=O)n3C)cc1", "max response, negative = inhibition": "inconclusive: -34.3%"}
{"smiles": "COC(=O)c1ccc(Nc2ccc3nonc3c2[N+](=O)[O-])cc1", "max response, negative = inhibition": "inactive: -3.41%"}
{"smiles": "COc1ccccc1N1CCN(Cc2ccc(Br)o2)CC1", "max response, negative = inhibition": "active: -81%"}
{"smiles": "CN(C)c1ccc(CC(=O)c2nc3ccccc3s2)cc1", "max response, negative = inhibition": "inconclusive: -33.2%"}
{"smiles": "CC(=O)c1cccc(CN2CCN(CCc3ccccc3)C(CCO)C2)c1", "note": "(stereo not given)", "max response, negative = inhibition": "inconclusive: -38.7%"}
{"smiles": "COc1ccc(C(=O)CN2C(=O)NC3(CCc4ccccc43)C2=O)cc1", "note": "(stereo not given)", "max response, negative = inhibition": "inactive: 8.58%"}
{"smiles": "C1CCC(n2nnnc2CN2CCCC2)CC1", "max response, negative = inhibition": "inconclusive: -38.6%"}
{"smiles": "Cc1ccc(C)n1-c1ccc(C(=O)NC2CCN(Cc3ccccc3)CC2)cc1", "max response, negative = inhibition": "active: -52.1%"}
{"smiles": "COc1cc([N+](=O)[O-])cc(/C=N/N(CCC#N)C(C)=O)c1O", "max response, negative = inhibition": "active: -58.8%"}
{"smiles": "COc1cccc(C(=O)OCC(=O)Nc2cc(C)on2)c1OC", "max response, negative = inhibition": "inconclusive: -38.9%"}
{"smiles": "CCCC[C@H]1COCCS(=O)(=O)N1Cc1ccccc1F", "max response, negative = inhibition": "inconclusive: -36.9%"}
{"smiles": "CCN(CC(=O)Nc1ccc(OC)cc1)C(=O)Cc1cccs1", "max response, negative = inhibition": "inconclusive: -31.4%"}
{"smiles": "O=C(Cc1coc2cc(O)ccc12)NNC(=O)c1ccc(Br)s1", "max response, negative = inhibition": "inconclusive: -30.1%"}
{"smiles": "COC(=O)c1cc(OC)c(OC)cc1NC(=O)c1ccccc1C", "max response, negative = inhibition": "inactive: 9.91%"}
{"smiles": "COC(=O)c1c(C)oc2ccc(NS(=O)(=O)c3cccs3)cc12", "max response, negative = inhibition": "inconclusive: -48.3%"}
{"smiles": "COc1ccc(-n2c(C)nc3c(cnn3-c3ccc(C)c(C)c3)c2=O)cc1", "max response, negative = inhibition": "inconclusive: -37.8%"}
{"smiles": "CNCc1ccccc1Sc1ccc(OC)cc1", "max response, negative = inhibition": "inconclusive: -34.8%"}
